# Assay results published in PubChem BioAssay AID504444 (National Center for Advancing Translational Sciences (NCATS), 2011).
# Among all 360,000 compounds or so, about 7,500 (2.1%) were called active. Inconclusive means that the source gave no clear call. Such entries were picked first, then a sample of the others. The call rests on the fitted dose curve; in most records, active means well fitted inhibition curve with a large enough effect; inconclusive means small, poorly fitted or top-dose-only effect, or effect the other way; inactive means flat fitted curve, though single readings scatter. A potency beside an inconclusive call is a rough fit, not a confirmed value.
# Experiment: Nrf2 qHTS screen for inhibitors; further: nearly all actives have a fitted effect of over 60% in size
# Conditions: A549 ARE-Fluc reporter, luciferase luminescence, 18-24 h; series mostly up to 46 µM
# How it was run: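 Concentration-response testing used A549 ARE_Fluc cells at 5000 cells/well. Following an 18-24 h compound incubation, viability was read by fluorescence (Ex 405/Em 525) and luciferase output by luminescence.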
# Potency means the concentration at half of the fitted maximal effect.
row,SMILES,Potency
1,CC(C)Cc1nc2sc3c(NCc4ccco4)ncnc3c2c2c1COC(C)(C)C2,inactive
2,CCOC(=O)c1c(C)oc2nc(C)nc(N3CCN(c4ccc(OC)cc4)CC3)c12,"inconclusive: 20.6 µM [falling, single point]"
3,Cc1cc(C(=O)CN2C(=O)C(=O)N(C3CCCC3)C2=O)c(C)n1CCc1ccc(F)cc1,"inconclusive: 8.2 µM [falling, partial curve, poor fit]"
4,Cc1ccc(S(=O)(=O)N(C)C)cc1NC(=O)COc1ccccc1C(=O)Nc1ccccc1,"inconclusive: 16.4 µM [falling, single point]"
5,COC(=O)CN1C(C(=O)c2ccccc2)=C(OC(=O)c2ccc(C)cc2)c2ccccc2S1(=O)=O,inactive
6,CC(C)(C)c1ccc(SCCc2ccccn2)cc1,"inconclusive: 13 µM [activator, partial curve]"
7,COc1ccc(NC(=O)c2ccc(COCC(F)(F)C(F)F)cc2)cc1OC,inactive
8,COc1cccc(N/C=C/C(=O)c2ccc(C)cc2)c1,"inconclusive: 5.8 µM [activator, full curve]"
9,CC(C)(C)CC(C)(C)NC(=S)Nc1ccc(S(=O)(=O)N2CCOCC2)cc1,"inconclusive: 29.1 µM [falling, single point]"
10,CCOc1ccc2nc(NC(=O)c3ccccc3)sc2c1,"inconclusive: 0.82 µM [activator, full curve, poor fit]"
11,O=C(COC(=O)c1ccccc1Br)Nc1ccc2[nH]c(=O)[nH]c2c1,inactive
12,COc1ccc(C2=Nn3c(nnc3-c3ccccc3OC)SC2)cc1OC1CCCC1,active: 16.4 µM
13,CCCCN(C(=O)CSc1nnc(-c2ccc(Cl)cc2)o1)c1c(N)n(CC(C)C)c(=O)[nH]c1=O,active: 18.4 µM
14,Cc1cccn2c(=O)c3cc(C(=O)NCCCN4CCCC4=O)n(C)c3nc12,"inconclusive: 0.0103 µM [falling, full curve, poor fit]"
15,CCOc1cc(/C=N/N=C(N)N)ccc1OCc1ccc(Cl)cc1,inactive
16,CCOC(=O)c1ccc(N/C=C\C(=O)c2cccc(OC)c2)cc1,"inconclusive: 4.61 µM [activator, partial curve]"
17,C=CCn1c(O)c(N=NC(=S)Nc2ccccc2F)c2cc(S(=O)(=O)N3CCOCC3)ccc21,active: 5.8 µM
18,O=C1COc2ccc(OCc3ccc(F)cc3)cc21,"inconclusive: 2.91 µM [activator, full curve]"
19,Cc1cc([N+](=O)[O-])ccc1NCc1cccc2ccccc12,active: 14.6 µM
20,Cc1ccc2c(c1)c1ncnc(N3CCOCC3)c1n2C,inactive
21,Cc1ccc(C(=O)Nc2ccc(Br)cc2)cc1S(=O)(=O)NCc1ccccc1,"inconclusive: 23.1 µM [falling, single point]"
22,COC(=O)c1cc(OC)c(OC)cc1NC(=O)c1ccc(C)o1,inactive
23,Cc1cccc(NS(=O)(=O)c2nnc(NC(=O)c3cccc(C)c3)s2)c1,"inconclusive: 2.91 µM [activator, full curve]"

row,SMILES,Potency
1,Cc1ccc(N(CC(=O)NC2CCCC2)C(=O)Cn2nnc(-c3ccccc3F)n2)cc1,"inconclusive: 29.1 µM [falling, single point]"
2,Cn1c(SCc2ccccc2)nnc1-c1cccs1,"inconclusive: 4.11 µM [activator, partial curve, poor fit]"
3,COC(=O)c1ccccc1NC(=O)NC1CCC(C)CC1 (configuration not stated),"inconclusive: 13 µM [activator, partial curve]"
4,C=CCN(CC=C)CC(O)Cn1c2ccccc2c2ccccc21 (configuration not stated),"inconclusive: 32.6 µM [falling, single point]"
5,CC(C)CC(=O)Nc1ccc(N2CCOCC2)cc1,inactive
6,CC(C)Nc1nc(-c2cccnc2)nc(-c2ccccc2)c1C#N,"inconclusive: 13 µM [falling, partial curve, poor fit]"
7,Cc1ccc(C)c2[nH]c(=O)c(CN(Cc3ccc4c(c3)OCO4)Cc3nnnn3Cc3ccco3)cc12,"inconclusive: 16.4 µM [falling, partial curve, poor fit]"
8,CCOc1ccc(-n2c(SCc3cc(=O)oc4cc(C)ccc34)nnc2-c2cccnc2)cc1,"inconclusive: 8.2 µM [falling, partial curve, poor fit]"
9,CCNc1ccc(C(=O)OCC(=O)N2CCCC2)cc1[N+](=O)[O-],"inconclusive: 4.61 µM [activator, full curve, poor fit]"
10,CCS(=O)(=O)N1Cc2ccccc2CC1C(=O)Nc1nc2ccccc2s1 (configuration not stated),"inconclusive: 10.3 µM [activator, partial curve]"
11,O=C(Nc1ccc(OC(F)(F)F)cc1)C1CCCCN1S(=O)(=O)c1ccccc1 (configuration not stated),"inconclusive: 18.4 µM [falling, single point]"
12,CCOC(=O)N1CCN(S(=O)(=O)c2ccc(C(=O)N(CCN(CC)CC)c3nc4ccc(C)cc4s3)cc2)CC1,"inconclusive: 20.6 µM [activator, single point]"
13,CC(C)(C)n1nnnc1C(c1cccs1)N(Cc1ccccc1)Cc1ccco1 (configuration not stated),active: 20.6 µM
14,CCOc1ccc(NC(=O)CC2C(=O)N(c3ccccc3)C(=O)N2Cc2cccc(OC)c2)cc1 (configuration not stated),"inconclusive: 20.6 µM [activator, single point]"
15,CCOC(=O)Cc1c(C)nc2c(C#N)c[nH]n2c1=O,inactive
16,COc1ccc(Cc2c(N)nc(N)nc2N)cc1,"inconclusive: 20.6 µM [activator, single point]"
17,COc1ccc(-c2nc3ccccc3s2)cc1NC(=O)COc1cccc(C)c1,"inconclusive: 3.26 µM [activator, full curve]"
18,COCCCNC(=S)N1CCC(C(=O)c2ccc(Cl)cc2)CC1,"inconclusive: 20.6 µM [falling, single point]"
19,CS(=O)(=O)Nc1ccc(C(=O)NCCC2=CCCCC2)cc1,"inconclusive: 14.6 µM [activator, partial curve, poor fit]"
20,O=C(COC(=O)CNS(=O)(=O)c1ccc(Br)cc1Cl)Nc1ccc(N2CCOCC2)cc1,"inconclusive: 13 µM [falling, partial curve, poor fit]"
21,CCOC(=O)C1=C(C)NC(C)=C(C(=O)OCC)C1C(=O)OCC(=O)NCCc1ccccc1,inactive
22,O=[N+]([O-])c1cc(-c2nnc(Nc3ccccc3)c3ccccc23)ccc1N1CCOCC1,"inconclusive: 25.9 µM [falling, single point]"
23,COc1ccccc1NC(=O)Nc1ccc(C(=O)N2CCCCC2)cc1,"inconclusive: 20.6 µM [activator, partial curve]"

row,SMILES,Potency
1,COc1ccc(C(CNC(=O)C(CCSC)NC(=O)c2ccccc2Cl)N2CCOCC2)cc1 (configuration not stated),inactive
2,CCc1ccc(S(=O)(=O)Nc2cc3c(cc2N2CCOCC2)n(C)c(=O)c(=O)n3C)cc1,"inconclusive: 29.1 µM [falling, single point]"
3,COc1cccc(/C=C2\SC(=S)N(CCC(=O)N3CCCCC3)C2=O)c1,"inconclusive: 8.2 µM [activator, partial curve, poor fit]"
4,CC(c1ccccc1)N1CC(C(=O)N2CCN(Cc3ccc(C#N)cc3)CC2)CC1=O (configuration not stated),"inconclusive: 18.4 µM [falling, single point]"
5,Cc1ccc(C)c(NC(=S)N=Nc2c(O)n(C)c3ccc(S(=O)(=O)N4CCOCC4)cc23)c1,"inconclusive: 6.51 µM [falling, full curve, poor fit]"
6,Cc1ccc(C)c(N2CCN(C(=O)C3CCN(c4nnc(N5CCCC5=O)s4)CC3)CC2)c1,"inconclusive: 23.1 µM [falling, partial curve]"
7,CCOC(=O)c1c(C)oc2c1c(/C=N/c1ccccn1)c(O)c1ccccc12,inactive
8,COc1ccc(C(=O)Nc2ccc(Cl)cn2)cc1Cl,"inconclusive: 9.2 µM [activator, partial curve]"
9,Cc1cc(C)cc(Nc2c3c(nc4ncnn24)CCC3)c1,inactive
10,CC(C)Cc1ccc(C(C)C(=O)Nc2cccnc2)cc1 (configuration not stated),active: 6.51 µM
11,Cc1ccc(CNc2ncnc3ccc(-c4c(C)noc4C)cc23)cc1,"inconclusive: 16.4 µM [falling, partial curve]"
12,Cc1cccc(NC(=O)c2ccc(OCc3c(C)noc3C)cc2)n1,"inconclusive: 18.4 µM [falling, single point]"
13,COc1ccccc1OCC(=O)N(Cc1nc(-c2ccccc2)no1)C(C)C,active: 13 µM
14,CCOC(=O)c1ccccc1NC(=O)COC(=O)c1c(CC)noc1C,inactive
15,O=C(NCc1ccc(F)cc1)c1cnn2ccccc12,"inconclusive: 4.11 µM [activator, single point]"
16,O=C(NCc1cccnc1)/C(=C\c1ccc(-c2ccc(Br)cc2)o1)S(=O)(=O)c1ccccc1,"inconclusive: 29.1 µM [falling, single point]"
17,O=C1NC(=O)C(=Cc2ccc(Cl)cc2Cl)S1,"inconclusive: 0.517 µM [activator, full curve, poor fit]"
18,CCOc1ccc(-c2nc(-c3cccs3)c(CC(=O)O)s2)cc1OC,"inconclusive: 16.4 µM [activator, partial curve]"
19,Cc1csc(NC(=O)c2ccoc2C)n1,"inconclusive: 3.26 µM [activator, partial curve]"
20,COc1cccc(/C=N/N2CCN(c3ccc(Cl)cc3)CC2)c1OC,"inconclusive: 20.6 µM [falling, single point]"
21,CCc1cccc(NC(=O)CN(c2ccc(C)cc2)S(=O)(=O)c2cccs2)c1,"inconclusive: 29.1 µM [falling, single point]"

# In the list so far, these have an NH in an aromatic ring.
row,SMILES,Potency
11,O=C(COC(=O)c1ccccc1Br)Nc1ccc2[nH]c(=O)[nH]c2c1,inactive
13,CCCCN(C(=O)CSc1nnc(-c2ccc(Cl)cc2)o1)c1c(N)n(CC(C)C)c(=O)[nH]c1=O,active: 18.4 µM
7,Cc1ccc(C)c2[nH]c(=O)c(CN(Cc3ccc4c(c3)OCO4)Cc3nnnn3Cc3ccco3)cc12,"inconclusive: 16.4 µM [falling, partial curve, poor fit]"
15,CCOC(=O)Cc1c(C)nc2c(C#N)c[nH]n2c1=O,inactive
